Experimental data reported in EP3556767A1, “CELL PENETRATING PEPTIDES” (Universidade De Santiago De Compostela, priority 2018, dated 2019).
Where “and” joins values, the source holds several entries; their conditions need not be identical. Identical values can stand only once. Not every detail of the peptide structures is certain; ends, links or a residue may be inferred. Where a SMILES comes first, the peptide text is derived from it. The star is where a group is joined. 5TAMRA = CN(C)c1ccc2c(c1)Oc1cc(N(C)C)ccc1C21OC(=O)c2cc(C(=O)*)ccc21; Biotin = O=C1N[C@H]2[C@H](CS[C@H]2CCCCC(=O)*)N1

What was measured:
[1] = Circular dichroism, percentage of helicity; format: physicochemical; conditions: 40°C; for % Helicity in Liposomes: egg yolk phosphatidylcholine liposomes
Experimental: Circular Dichroism (CD) measurements were performed with a Jasco J-1100 CD Spectrometer equipped with a Jasco MCB-100 Mini Circulation Bath for temperature control.
Circular dichroism measurements were carried out with the following settings: acquisition range: 300-190 nm; band width: 1.0 nm; accumulation: 3 scans; data pitch: 1 nm; CD scale 200 mdeg/1.0 dOD; D.I.T. (Data Integration Time): 1 s; scanning mode: continuous; scanning speed: 200 nm/min. Measurements were done from 10 °C to 60 °C (data interval: 10 °C; temp. gradient 5 °C/min) in a quartz cell of 0.2 cm path length at a final volume of 0.5 mL (H2O or TFE) with a final peptide concentration of 200 µM.
The results are expressed as the mean residue molar ellipticity [θ]MRt with units of degrees·cm^2.dmol^-1 and calculated using the equation S1.
The percentage of helicity was calculated using the equation S2. For the measurements in liposomes, samples were prepared by drying under reduced pressure L-α-phosphatidylcholine (16.7 µL, 25 mg/mL solution in CHCl3) and peptide (300 µL, 100 µM) in TFE to obtain a ratio lipid/peptide of 18:1 in a 10 mL round bottomed flask. The mixture was concentrated in a rotary evaporator to dryness, forming a film. The lipid/peptide mixture were suspended in HKR buffer (300 µL) to a final peptide concentration 100µM and sonicated for 45 min until a clear solution was obtained. Spectra were recorded in a 0.2 cm path length quartz cell. [formula]
Equation S1: Formula to calculate the ellipticity. θ is the ellipticity (mdeg), C is the peptide concentration (M) and I is the cell path length (cm). helicity % = (θMRt222nm−2340)/(30300) × 100 [formula]
Equation S2: Formula to calculate the percent of helicity in where the molar ellipticity at 222 nm is an absolute value.

HeLa cells [2] = assay: Quantification of the uptake by flow cytometry; format: cell-based; conditions: TAMRA labelled peptides, 1, 3, 5, 7, 10 µM; Figure 3
Experimental: For internalization standard assays we measured the amount of peptide fluorescence in cells by flow cytometry. Briefly, semiconfluent monolayers of HeLa cells seeded the day before were washed twice with HKR before incubation with different concentrations (1, 3, 5, 7, 10 µM) of TAMRA labelled peptides diluted in cell culture medium without serum for 1 hour at 37 °C . Then, cells were trypsinized with 100 µL of Trypsin-EDTA (Gibco) for 10 min at 37 °C, and trypsin neutralized with 100 µL of 2 % FBS in PBS with 5 mM EDTA. Pipetting broke cell clumps and the analysis was done in a Guava easyCyte™ cytometer. TAMRA levels were determined by excitation at 532 nm and detection at 575/25 nm. For the analysis, cells with typical FSC and SSC parameters were selected, and median fluorescence intensity was calculated for each sample. Data analysis was performed with InCyte software included in GuavaSoft 3.2 (Millipore).
The results of uptake of CPP P8 in HeLa, A-549 and SF9 are depicted in Figure 5: Uptake quantification by flow cytometry in three different cell lines: HeLa cells, A549 cells and Sf9 cells. Data points were collected in triplicate at six different concentrations (0, 1, 3, 5, 7, 10 µM). Cells were treated in DMEM (-) (HeLa, A549), or Sf-900-II (-) (Sf9) for 1 hour prior to trypsinization and cytometry quantification. Error bars indicate SD of three replicates.

endosomes = assay: Dextran escape from endosomes; format: cell-based; conditions: dextran 250 µg/ml; Figure 11
Experimental: Dextran is a polysaccharide (in this case labeled with a green fluorescent probe) known to internalize cells through the endocytic pathway. Thus, if the CPPs of the invention are capable of inducing release of dextrane from endosomes into the cytosol, the cell will display diffuse green fluorescence. The experiment was run by incubating dextran (250 µg/ml) in the presence of 5 µM of a CPP: (i) P8 marked with TAMRA, (ii) acetylated P8, and (iii) R8 as comparison.

HeLa cells [3] = assay: Viability in the presence of saporin (MTT); format: cell-based; conditions: 10 µg/mL saporin
Experimental: Saporin (253 aa, 28 kDa) is a toxic protein from the group of the ribosome-inactivating proteins (RIP), which is not capable of reaching the cytosol by itself, although it can be passively internalized by pinocytosis if it is found in the culture medium, being retained in endosomes. Incubation of the cells with this protein in the presence of an endosomolytic agent causes the release of the protein to the cytosol and cell death.
For the experiment, HeLa cells were incubated in a 96-well plate with 10 µg/mL of saporin, and increasing concentrations of the P8 and R8 acetylated peptides.
The cells were co-incubated with the protein and peptide for 1 h in culture medium without serum or antibiotics, at which time the compounds were removed, washed and complete medium was added for 6 h, to allow the maturation of the endosomes and the escape of the toxin. At that time, MTT (tetrazolium salt) was added, cells were further incubated for 3 h, and the medium removed before solubilizing the formazan salt with DMSO. This viability test measures the reduction of MTT to formazan by mitochondrial activity, which can then be quantified by absorbance.

[4] = system: HeLa cells stably transfected with a plasmid carrying the LoxP-DsRED-STOP-LoxP-eGFP insert; assay: Cre recombinase protein cytosolic delivery (Cre Reporter system); format: cell-based; conditions: 1 µM Cre recombinase protein
Experimental: In order to further test the capabilities of the CPPs of the invention to release macromolecules into the cytosol, a Cre recombinase delivery assay was done in the presence of P8. HeLa cells stably transfected with a plasmid carrying the LoxP-DsRED-STOP-LoxP-eGFP insert (Cre Reporter system) were incubated with 1 µM Cre recombinase protein and CPPs P8 or R8 at different concentrations.
These cells express normally the dsRED protein (red fluorescence), but when the Cre recombinase protein removes the dsRED ORF by recombination, the eGFP gene (green fluorescence) is expressed instead. Thus, the percentage of cells expressing eGFP can be used as a measure of the percentage of cells where the Cre Recombinase had been effectively released into the cytosol.

HeLa cells [5] = assay: Cell transport experiments (fluorescence microscopy, co-localization); format: cell-based; conditions: fluorescently labelled Streptavidin; confocal micrographs
Experimental: HeLa cells growing on four chamber glass bottom dishes were washed with HEPES-Krebs-Ringer (HKR) buffer (5 mM HEPES, 137 mM NaCl, 2.68 mM KCI, 2.05 mM MgCl2, 1.8 mM CaCl2, pH 7.4) and nuclei were stained by incubation with 1 µM Hoechst 33342 in HKR for 30 min. The CPP and protein were diluted in HKR and incubated for 7 min at room temperature to allow the formation of the complexes. Cells were washed with HKR and incubated with the complexes for another 30 min. Cells were washed again to remove excess peptide before performing epifluorescence microscopy using a Nikon Eclipse Ti-E inverted microscope or confocal microscopy with a Leica SP5 microscope. Images were analyzed with ImageJ and the co-localization parameters (Manders coefficients) were calculated using the Coloc2 plugin selecting the Costes method of threshold regression.

SMILES | % Helicity in water [1] [%] | % Helicity in Liposomes [1] | uptake in living HeLa cells (HeLa cells [2]) | concentration at which the peptide starts to release the dextran into the cytosol (endosomes) [µM] | concentration from which a reduction of viability is observed in the presence of saporin (HeLa cells [3]) [µM] | peptide concentration at the maximum percentage of eGFP expressing cells [4] [µM] | maximum percentage of eGFP expressing cells ([4]; Figure 10) [%] | transport of Streptavidin (HeLa cells [5])
CC(C)C[C@H](NC(=O)c1ccc2c(c1)C(=O)OC21c2ccc(N(C)C)cc2Oc2cc(N(C)C)ccc21)C(=O)N[C@@H](CCCNC(=N)N)C(=O)N[C@@H](C)C(=O)N[C@@H](CC(C)C)C(=O)N[C@@H](C)C(=O)N[C@@H](C)C(=O)N[C@@H](CC(C)C)C(=O)N[C@@H](C)C(=O)N[C@@H](CCCNC(=N)N)C(=O)N[C@@H](C)C(=O)N[C@@H](C)C(=O)N[C@@H](C)C(=O)N[C@@H](C)C(=O)N[C@@H](C)C(=O)N[C@@H](C)C(=O)N[C@@H](CCCNC(=N)N)C(N)=O [P8, TmL R ALAALA R A6 R] (5TAMRA-LRALAALARAAAAAAR-NH2) | 12.8 | 50% and 49.2% | perform better in the uptake test | ≥ 3 | ≥ 7 | 2.5 | 33 | 
CC(=O)N[C@@H](CCCNC(=N)N)C(=O)N[C@@H](CCCCNC(=O)CCCC[C@@H]1SC[C@@H]2NC(=O)N[C@@H]21)C(=O)N[C@@H](CC(C)C)C(=O)N[C@@H](CCCNC(=N)N)C(=O)N[C@@H](CCCNC(=N)N)C(=O)N[C@@H](CC(C)C)C(=O)N[C@@H](CC(C)C)C(=O)N[C@@H](CCCNC(=N)N)C(=O)N[C@@H](CCCNC(=N)N)C(=O)N[C@@H](CC(C)C)C(=O)N[C@@H](CCCCNC(=O)CCCC[C@@H]1SC[C@@H]2NC(=O)N[C@@H]21)C(=O)N[C@@H](CCCNC(=N)N)C(=O)N[C@@H](CC(C)C)C(N)=O [AcP(Biot)2] (Ac-RK(Biotin)LRRLLRRLK(Biotin)RL-NH2) |  |  |  |  |  |  |  | presence of internalized Streptavidin
C[C@H](NC(=O)c1ccc2c(c1)C(=O)OC21c2ccc(N(C)C)cc2Oc2cc(N(C)C)ccc21)C(=O)N[C@@H](CCCNC(=N)N)C(=O)N[C@@H](C)C(=O)N[C@@H](C)C(=O)N[C@@H](C)C(=O)N[C@@H](C)C(=O)N[C@@H](C)C(=O)N[C@@H](C)C(=O)N[C@@H](CCCNC(=N)N)C(=O)N[C@@H](C)C(=O)N[C@@H](C)C(=O)N[C@@H](C)C(=O)N[C@@H](C)C(=O)N[C@@H](C)C(=O)N[C@@H](C)C(=O)N[C@@H](CCCNC(=N)N)C(N)=O [P1, TmA R A6 R A6 R, reference compound] (5TAMRA-ARAAAAAARAAAAAAR-NH2) | 9.7 | 0.2% | negligible uptake |  |  |  |  | 
